Experiment [1] deals with recombinant human ADAMTS5 (human) (UniProt Q9UNA0). The experiment can be described thus: ELISA; solid phase binding assay: ELISA plates coated with BSA (blanks), collagen I, collagen II or ADAMTS5 (2–250 ng/well), blocked with BSA, incubated with Ucma (100 ng/ml); bound Ucma detected with anti-FLAG antibody, anti-mouse-IgG-HRP, o-phenylenediamine, 492 nm; both purified. A general note: In an ELISA, binding on a coated surface is turned into a signal by an enzyme label.

Sequences of proteins named here, by UniProt entry; tags and fusion partners are left off. A change or cut given only in a name is not applied to a line headed by its entry.
UniProt Q9UNA0: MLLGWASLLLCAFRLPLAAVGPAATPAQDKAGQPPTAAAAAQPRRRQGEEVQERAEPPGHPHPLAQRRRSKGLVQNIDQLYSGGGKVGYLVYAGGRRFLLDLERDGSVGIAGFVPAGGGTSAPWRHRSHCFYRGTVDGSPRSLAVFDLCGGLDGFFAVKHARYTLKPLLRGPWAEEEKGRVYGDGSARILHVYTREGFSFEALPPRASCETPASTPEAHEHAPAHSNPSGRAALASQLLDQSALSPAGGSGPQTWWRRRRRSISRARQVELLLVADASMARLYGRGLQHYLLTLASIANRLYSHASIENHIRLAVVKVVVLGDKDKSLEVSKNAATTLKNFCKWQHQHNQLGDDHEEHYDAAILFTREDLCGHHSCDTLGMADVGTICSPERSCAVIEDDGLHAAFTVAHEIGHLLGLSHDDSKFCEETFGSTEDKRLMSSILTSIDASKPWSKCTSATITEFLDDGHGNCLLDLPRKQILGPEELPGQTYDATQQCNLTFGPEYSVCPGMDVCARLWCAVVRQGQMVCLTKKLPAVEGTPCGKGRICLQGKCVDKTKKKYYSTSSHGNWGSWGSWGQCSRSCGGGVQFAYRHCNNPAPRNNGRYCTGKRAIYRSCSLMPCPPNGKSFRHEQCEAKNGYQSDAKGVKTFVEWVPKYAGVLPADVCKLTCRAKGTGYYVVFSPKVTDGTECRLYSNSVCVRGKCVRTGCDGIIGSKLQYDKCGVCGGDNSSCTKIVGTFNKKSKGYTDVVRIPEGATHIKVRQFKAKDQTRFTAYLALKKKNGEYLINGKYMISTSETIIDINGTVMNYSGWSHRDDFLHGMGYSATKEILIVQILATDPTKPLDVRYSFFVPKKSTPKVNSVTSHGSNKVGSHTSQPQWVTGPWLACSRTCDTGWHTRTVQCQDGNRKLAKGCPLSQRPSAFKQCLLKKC

For experiment [2] the target is unchanged. Nature of the experiment: far-Western, overlay or dot blot; slot blot binding assay: ADAMTS5, collagen I and collagen II immobilised on PVDF membranes by vacuum blotting, blocked with BSA, incubated with recombinant Ucma (100 ng/μl) or BSA; bound Ucma detected with anti-FLAG or anti-Ucma (UCMA-1) antibody, HRP secondary antibody and ECL; both purified.

These are yes or no findings as the source states them, for the method shown. Binding can be weak; no strength is given. Tags and fused reporters may be left off the sequences shown.

The record followed here is paper PMC5932879.

B1: Upper zone of growth plate and cartilage matrix associated protein (Ucma), recombinant His-FLAG-tagged (protein, UniProt Q14BU0 28-138)
chain: SVGSRQAAAEGVQEGVKQKIFMQESDASNFLKRRGKRSPKSRDEVNAENRQRLRDDELRREYYEEQRNEFENFVEEQRDEQEERTREAVEQWRQWHYDGLYPSYLYNRQNI
For B1, the binding result in experiment [1] and in experiment [2] was “binds” throughout.
